Experimental data from article PMC9831654.
No constants are given. Whether binding was seen depends on the method and setting. In cells and extracts the contact can be indirect. Some results given as binding are weak or reduced against the parent protein; the word gives no strength.

Chains of the proteins cited; added tags and fusions are not shown.
UniProt P54652: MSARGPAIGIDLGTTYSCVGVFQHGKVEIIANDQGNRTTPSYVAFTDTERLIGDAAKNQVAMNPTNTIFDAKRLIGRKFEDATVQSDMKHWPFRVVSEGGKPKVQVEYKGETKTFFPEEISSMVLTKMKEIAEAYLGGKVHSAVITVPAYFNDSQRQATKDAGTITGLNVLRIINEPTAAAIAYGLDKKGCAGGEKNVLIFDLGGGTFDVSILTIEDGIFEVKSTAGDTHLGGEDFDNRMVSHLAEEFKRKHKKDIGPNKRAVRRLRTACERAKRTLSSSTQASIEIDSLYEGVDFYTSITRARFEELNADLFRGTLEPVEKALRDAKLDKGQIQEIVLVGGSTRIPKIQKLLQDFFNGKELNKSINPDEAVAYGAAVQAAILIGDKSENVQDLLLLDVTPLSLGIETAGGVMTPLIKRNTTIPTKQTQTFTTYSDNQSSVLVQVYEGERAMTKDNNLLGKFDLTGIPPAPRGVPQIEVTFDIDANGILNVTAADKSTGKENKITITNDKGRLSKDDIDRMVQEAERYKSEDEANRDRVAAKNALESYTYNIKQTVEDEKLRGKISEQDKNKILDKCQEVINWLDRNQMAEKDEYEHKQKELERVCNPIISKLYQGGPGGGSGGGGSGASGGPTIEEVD

Legend:
[1] = biological target: USP20 (ubiquitin-specific peptidase 20), endogenous (human (endogenous in HEK-293T)) (UniProt Q9Y2K6); test: co-IP; endogenous proteins in HEK293T lysate; IP with the indicated antibodies and protein A/G magnetic beads at 4°C, immunoblotting
[2] = biological target: Flag-USP20 (ubiquitin-specific peptidase 20) (UniProt Q9Y2K6); test: co-IP; Flag-USP20 and Myc-HSPA2 co-expressed in HEK-293T cells for 48 h; RIPA lysate, IP with the indicated antibodies and protein A/G magnetic beads at 4°C, immunoblotting

## HSPA2 (heat-shock protein family A member 2), endogenous (from UniProt P54652 1-639)
[1]
  binding: binds

## Myc-HSPA2 (heat-shock protein family A member 2) (from UniProt P54652 1-639)
[2]
  binding: binds
